From PubChem BioAssay AID192 (DTP/NCI, 2004)
The list shows only some results of the screen, not a fair sample: it is rich in T/C values a quarter to a half above the control, in often repeated tests (any T/C) and in doses without a T/C. Other doses and runs of a compound stand elsewhere. T/C gives the treated animals as a percentage of the vehicle group. Some entries give survivors of the animals treated and no T/C: the source files T/C as zero there, which appears to mark a toxic dose or a test without result, not a measured value. Some doses without a T/C left all or most animals alive at the check, yet need not have been tolerated: the source hardly ever lists a survival T/C far under the control, and the zero likely stands for such cases as well. Counts of survivors are from the toxicity check (mostly the fifth day) where no day follows; animals may have died later. Schedules are NCI's codes, read here as Q, the interval in days (D) or hours (H), X, the number of doses. Brackets with × count equal records among those shown. Some entries were tested several times; their values stand side by side, smallest first. For survival time, the PubChem record calls one and a half times the control and up active, and a quarter to a half above the control has no call in these data; cut-offs in other NCI protocols can differ. Some T/C values are followed by the survivors on the day toxicity was checked, most often the fifth; where none is given, no animal had died by that day. Peptide text beside a SMILES is read from it. * marks the point of attachment. Bn = c1ccc(C*)cc1

System: BDF1 mice, B16 melanoma ip, median survival T/C
Assay: NCI In Vivo Anticancer Drug Screen. Data for tumor model B16 Melanoma (intraperitoneal) in B6D2F1 (BDF1) mice
Conditions: T/C endpoint: median survival time, higher T/C = longer survival
Procedure, shortened: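 Vehicle-treated animals serve as the reference (C); treated animals (T) are scored for survival or tumor size after tumor transplantation.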

[1] = dose: 50.0 mg/kg/injection, schedule: Q01DX009 (ip), vehicle: saline with Tween-80
[2] = dose: 50.0 mg/kg/injection, schedule: Q04DX003 (ip), vehicle: Klucel (hydroxypropylcellulose) (HPC)
[3] = dose: 200.0 mg/kg/injection, schedule: Q04DX003 (ip), vehicle: Klucel (hydroxypropylcellulose) (HPC)
[4] = dose: 100.0 mg/kg/injection, schedule: Q01DX009 (ip), vehicle: saline with Tween-80
[5] = dose: 200.0 mg/kg/injection, schedule: Q01DX009 (ip), vehicle: saline with Tween-80
[6] = dose: 400.0 mg/kg/injection, schedule: Q01DX009 (ip), vehicle: Klucel (hydroxypropylcellulose) (HPC)
[7] = dose: 12.5 mg/kg/injection, schedule: Q01DX009 (ip), vehicle: saline
[8] = dose: 25.0 mg/kg/injection, schedule: Q01DX009 (ip), vehicle: saline
[9] = dose: 50.0 mg/kg/injection, schedule: Q01DX009 (ip), vehicle: saline
[10] = dose: 100.0 mg/kg/injection, schedule: Q01DX009 (ip), vehicle: saline
[11] = dose: 400.0 mg/kg/injection, schedule: Q01DX009 (ip), vehicle: saline
[12] = dose: 50.0 mg/kg/injection, schedule: Q01DX009 (ip), vehicle: Klucel (hydroxypropylcellulose) (HPC)
[13] = dose: 200.0 mg/kg/injection, schedule: Q01DX009 (ip), vehicle: saline
[14] = dose: 400.0 mg/kg/injection, schedule: Q01DX009 (ip), vehicle: saline with Tween-80

## Cc1ccc2c(ccc(/C=C/c3ccc(O)c4ncccc34)[n+]2C)c1
[1]
  survivor count: 10 of 10
dose: 75.0 mg/kg/injection, schedule: Q01DX009 (ip), vehicle: saline sonified
  T/C: 131 % of control
dose: 150.0 mg/kg/injection, schedule: Q01DX009 (ip), vehicle: saline sonified
  survivor count: 6 of 6
dose: 300.0 mg/kg/injection, schedule: Q01DX009 (ip), vehicle: saline sonified
  survivor count: 6 of 6

## Cc1cccc2nc(-c3ccccc3)ccc12
[2]
  survivor count: 0 of 10
dose: 50.0 mg/kg/injection, schedule: Q04DX003 (ip), vehicle: saline
  survivor count: 6 of 10
dose: 100.0 mg/kg/injection, schedule: Q04DX003 (ip), vehicle: Klucel (hydroxypropylcellulose) (HPC)
  survivor count: 0 of 10
[3]
  survivor count: 0 of 10

## O=Cc1c(O)c2ccccc2[nH]c1=O
[4]
  T/C: 132 % of control [9 of 10 alive]
[5]
  survivor count: 3 of 10 and 8 of 10

## COc1ccc(-n2c(=S)[nH]c3ccccc3c2=O)cc1
[6]
  survivor count: 6 of 10

## CCCCCCCCCCCCCCCC[N+]1(C)CCN(SN2CC[N+](C)(CCCCCCCCCCCCCCCC)CC2)CC1
[7]
  survivor count: 10 of 10
[8]
  survivor count: 10 of 10

## COc1cc(C(=O)OCCCN2CCOCC2)cc(OC)c1OC
[8]
  survivor count: 10 of 10
[9]
  survivor count: 10 of 10
[10]
  survivor count: 10 of 10
[11]
  survivor count: 10 of 10

## c1ccc([P+](c2ccccc2)(c2ccccc2)c2ccccc2)cc1
dose: 10.0 mg/kg/injection, schedule: Q01DX009 (ip), vehicle: saline with Tween-80
  survivor count: 10 of 10
dose: 10.0 mg/kg/injection, schedule: Q04DX003 (ip), vehicle: saline
  survivor count: 10 of 10

## C/C(=C\c1ccccc1)[N+](=O)[O-]
[4]
  survivor count: 8 of 10
dose: 100.0 mg/kg/injection, schedule: Q04DX003 (ip), vehicle: saline with Tween-80
  T/C: 128 % of control

## CS(=O)(=O)c1cc(=O)[nH]c(=O)[nH]1
[1]
  survivor count: 10 of 10
[5]
  survivor count: 7 of 10

## C=C1Sc2ccccc2N1C
[12]
  survivor count: 5 of 10

## CCC1C(=O)NC(=O)C1(C)c1ccccc1 (configuration not stated)
[11]
  survivor count: 5 of 10

## CCC(C)Nc1ccc(N)cc1 (configuration not stated)
dose: 1.5 mg/kg/injection, schedule: Q01DX009 (ip), vehicle: Klucel (hydroxypropylcellulose) (HPC)
  survivor count: 3 of 10
dose: 3.0 mg/kg/injection, schedule: Q01DX009 (ip), vehicle: Klucel (hydroxypropylcellulose) (HPC)
  survivor count: 2 of 10

## COC(=O)C(CC(C)C)NC(=O)C(N)Cc1ccc(OCc2ccccc2)cc1 (configuration not stated) (H-Tyr(Bn)-Leu-OMe; configuration not given here)
[12]
  survivor count: 9 of 10

## CC1(C)N=C(N)N=C(N)N1c1ccc(CCC(=O)Nc2ccc(S(=O)(=O)F)cc2)c(Cl)c1
[8]
  T/C: 126 % of control
dose: 35.6 mg/kg/injection, schedule: Q01DX009 (ip), vehicle: saline with Tween-80
  T/C: 125 % of control
dose: 44.0 mg/kg/injection, schedule: Q01DX009 (ip), vehicle: saline with Tween-80
  survivor count: 6 of 6
[9]
  T/C: 133 % of control
dose: 67.0 mg/kg/injection, schedule: Q01DX009 (ip), vehicle: saline with Tween-80
  survivor count: 6 of 6
[4]
  survivor count: 6 of 6
dose: 150.0 mg/kg/injection, schedule: Q01DX009 (ip), vehicle: saline with Tween-80
  survivor count: 6 of 6

## CCCCCCCCCCCCCCCCCCNC(=O)Nc1ccc(C(C)C)cc1
[2]
  survivor count: 10 of 10
[3]
  survivor count: 10 of 10
dose: 400.0 mg/kg/injection, schedule: Q04DX003 (ip), vehicle: Klucel (hydroxypropylcellulose) (HPC)
  survivor count: 10 of 10

## COc1ccc(Oc2cc(CC3c4cc(OC)c(OC)cc4CCN3C)c([N+](=O)[O-])cc2OC)cc1OC (configuration not stated)
[10]
  survivor count: 7 of 10
[13]
  survivor count: 0 of 10
[11]
  survivor count: 0 of 10

## CN1C(=O)C(=Cc2ccc(O)cc2)C(=O)N(C)C1=O
[1]
  survivor count: 10 of 10
[4]
  survivor count: 10 of 10
[5]
  survivor count: 10 of 10
[14]
  survivor count: 9 of 10

## NC(=O)c1[nH]nc(C2OC(CO)C(O)C2O)c1O (configuration not stated)
dose: 0.25 mg/kg/injection, schedule: Q01DX009 (ip), vehicle: saline
  T/C: 142 % of control
dose: 1.25 mg/kg/injection, schedule: Q01DX009 (ip), vehicle: saline
  survivor count: 10 of 10
dose: 2.5 mg/kg/injection, schedule: Q01DX009 (ip), vehicle: saline
  survivor count: 9 of 10 and 10 of 10
dose: 5.0 mg/kg/injection, schedule: Q01DX009 (ip), vehicle: saline
  survivor count: 9 of 10

## CNC(=O)OCc1c(COC(=O)NC)c(-c2ccccc2)n(C)c1-c1ccccc1
dose: 50.0 mg/kg/injection, schedule: Q01DX009 (ip), vehicle: distilled water + Tween-80
  survivor count: 10 of 10
dose: 100.0 mg/kg/injection, schedule: Q01DX009 (ip), vehicle: distilled water + Tween-80
  survivor count: 7 of 10

## CC(C)(C)OC(=O)NC(CCCCNC(=O)OCc1ccccc1)C(=O)O (configuration not stated)
[5]
  survivor count: 10 of 10
[14]
  survivor count: 10 of 10

## COc1cc(C2=NCCc3cc4c(cc32)OCO4)cc(OC)c1OC
[13]
  survivor count: 8 of 10

## FC(F)(F)c1ccc2c(c1)N(CCCN1CCN(CCC3OCCCO3)CC1)c1ccccc1S2
dose: 0.78 mg/kg/injection, schedule: Q01DX009 (ip), vehicle: saline
  survivor count: 10 of 10
dose: 1.56 mg/kg/injection, schedule: Q01DX009 (ip), vehicle: saline
  survivor count: 10 of 10
dose: 3.12 mg/kg/injection, schedule: Q01DX009 (ip), vehicle: saline
  T/C: 132 % of control
dose: 6.25 mg/kg/injection, schedule: Q01DX009 (ip), vehicle: saline
  survivor count: 10 of 10
[7]
  survivor count: 8 of 10 and 10 of 10

## O=C(OC1COC(n2c(=O)oc3ccc(F)cc32)C(OC(=O)c2ccccc2)C1OC(=O)c1ccccc1)c1ccccc1 (configuration not stated)
[6]
  survivor count: 6 of 6

## O=[N+]([O-])c1cc(Cl)cc2c1nc(NCCO)c1ccccc12
[1]
  survivor count: 6 of 6
[4]
  survivor count: 6 of 6

## [N-]=[N+]=CC(=O)CCC(=O)C=[N+]=[N-]
dose: 0.09 mg/kg/injection, schedule: Q01DX009 (ip), vehicle: other
  T/C: 128 % of control
dose: 0.2 mg/kg/injection, schedule: Q01DX009 (ip), vehicle: other
  T/C: 128 % of control
dose: 0.75 mg/kg/injection, schedule: Q01DX009 (ip), vehicle: other
  T/C: 143 % of control
dose: 0.78 mg/kg/injection, schedule: Q01DX009 (ip), vehicle: other
  T/C: 126 % of control
dose: 1.5 mg/kg/injection, schedule: Q01DX009 (ip), vehicle: other
  T/C: 142 % of control
dose: 3.0 mg/kg/injection, schedule: Q01DX009 (ip), vehicle: other
  survivor count: 10 of 10
dose: 3.12 mg/kg/injection, schedule: Q01DX009 (ip), vehicle: other
  survivor count: 10 of 10
dose: 6.0 mg/kg/injection, schedule: Q01DX009 (ip), vehicle: other
  survivor count: 10 of 10
dose: 6.25 mg/kg/injection, schedule: Q01DX009 (ip), vehicle: other
  survivor count: 10 of 10 (2×)
dose: 12.5 mg/kg/injection, schedule: Q01DX009 (ip), vehicle: other
  survivor count: 10 of 10 (2×)
dose: 25.0 mg/kg/injection, schedule: Q01DX009 (ip), vehicle: other
  survivor count: 8 of 10 and 10 of 10
dose: 50.0 mg/kg/injection, schedule: Q01DX009 (ip), vehicle: other
  survivor count: 9 of 10 and 10 of 10

## CCCC1(CCC)CN(CO)C1=O
[13]
  survivor count: 9 of 10
dose: 400.0 mg/kg/injection, schedule: Q04DX003 (ip), vehicle: saline
  survivor count: 10 of 10

## COc1cc2ccc(Cc3nccc4cc(OC)c(OC)cc34)cc2cc1OC
[6]
  survivor count: 8 of 10
